Laboratory results: patent US10023532B2, “Alkyl phenyl sulfide derivative and pest control agent” (KUMIAI CHEMICAL INDUSTRY CO., LTD., priority 2012, dated 2018)
Some entries share one result that the patent states for a list of compounds.

Tested on: Tetranychus urticae Koch (two spotted spider mite)
Assay: Control effect test for Tetranychus urticae Koch (two spotted spider mite)
Format: in vivo
Details: active ingredient concentration 4 ppm; soybean seedlings with 35 female adults immersed; 25° C.; after 13 days; no replication
Experimental: A wettable powder prepared based on Formulation Example 2 was diluted with water into an active ingredient concentration of 4 ppm. In the solution were immersed soybean seedlings which had been inoculated with 35 female adults of two spotted spider mite. The soybean seedlings were dried in the air and placed in a thermostat of 25° C. After 13 days, the number of living female adults was examined and the control value of the active ingredient was determined using the calculation formula of the following Mathematical Expression 1. This test was conducted with no replication. Control value=100−[(number of living female adults after 13 days, in treated seedlings)/(number of living female adults after 13 days, in non-treated seedlings)]×100 [Mathematical Expression 1]
Tests similar to the above were conducted using, as comparative compounds, compound Nos. 22 and 23 described in JP-A-1975-29744, compound Nos. 3, 4, 5, 6 described in JP-A-1976-19121 and compound Nos. 18, 19 and 36 described in JP-A-1988-41451. The structures of these comparative compounds are as follows.

Compound	control value
FC(F)SCCCCCOc1cc(SCC(F)(F)F)c(Cl)cc1Cl [A-0561]	≥ 90
Cc1cc(Cl)c(OCCCCCSC(F)F)cc1[S+]([O-])CC(F)(F)F (stereo not shown) [A-0562]	≥ 90
Cc1cc(C)c([S+]([O-])CC(F)(F)F)cc1OCCCCCSC(F)F (stereo not shown) [A-0563]	≥ 90
Cc1cc(F)c(OCCCCCCSC(F)F)cc1[S+]([O-])CC(F)(F)F (stereo not shown) [A-0571]	≥ 90
[O-][S+](CC(F)(F)F)c1cc(OCCCCCCSC(F)F)c(F)cc1Cl (stereo not shown) [A-0573]	≥ 90
[O-][S+](CC(F)(F)F)c1cc(OCCCCCCSC(F)F)ccc1Cl (stereo not shown) [A-0575]	≥ 90
Cc1cc(Cl)c(OCCCCCCSC(F)F)cc1[S+]([O-])CC(F)(F)F (stereo not shown) [A-0576]	≥ 90
[O-][S+](CC(F)(F)F)c1cc(OCCCCCCSC(F)F)c(Cl)cc1Cl (stereo not shown) [A-0577]	≥ 90
Cc1cc(C)c([S+]([O-])CC(F)(F)F)cc1OCCCCCCSC(F)F (stereo not shown) [A-0578]	≥ 90
Fc1cc(Cl)c(SCC(F)(F)F)cc1OCCCCCCCSC(F)F [A-0588]	≥ 90
[O-][S+](CC(F)(F)F)c1cc(OCCCCCCCSC(F)F)c(F)cc1Cl (stereo not shown) [A-0589]	≥ 90
[O-][S+](CC(F)(F)F)c1cc(OCCCCCCCSC(F)F)c(Cl)cc1Cl (stereo not shown) [A-0590]	≥ 90
Cc1cc(Cl)c(OCCCCCCCSC(F)F)cc1[S+]([O-])CC(F)(F)F (stereo not shown) [A-0591]	≥ 90
Cc1ccc(OCCCCCCCSC(F)F)cc1[S+]([O-])CC(F)(F)F (stereo not shown) [A-0592]	≥ 90
Cc1cc(F)c(OCCC[S+]([O-])C(F)F)cc1[S+]([O-])CC(F)(F)F (stereo not shown) [A-0594]	≥ 90
[O-][S+](CC(F)(F)F)c1cc(OCCCCC[S+]([O-])C(F)F)c(F)cc1Cl (stereo not shown) [A-0599]	≥ 90
[O-][S+](CC(F)(F)F)c1cc(OCCCCCC[S+]([O-])C(F)F)c(F)cc1Cl (stereo not shown) [A-0605]	≥ 90
Cc1cc(F)c(OCCCCCCS(=O)(=O)C(F)F)cc1SCC(F)(F)F [A-0622]	≥ 90
N#CSCCCCOc1cc(SCC(F)(F)F)c(Cl)cc1F [A-0665]	≥ 90
Cc1cc(F)c(OCCC(C)CCSC#N)cc1SCC(F)(F)F (stereo not shown) [A-0674]	≥ 90
Cc1cc(F)c(OCc2ccc(C(F)(F)F)cc2)cc1SCC(F)(F)F [A-0690]	≥ 90

Compound	control value
Fc1cc(Cl)c(SCC(F)(F)F)cc1OCc1ccc(C(F)(F)F)cc1 [A-0693]	≥ 90
Cc1cc(Cl)c(OCc2ccc(C(F)(F)F)cc2)cc1SCC(F)(F)F [A-0695]	≥ 90
N#Cc1ccc(OCc2ccc(C(F)(F)F)cc2)cc1SCC(F)(F)F [A-0697]	≥ 90
Fc1cc(Cl)c(SCC(F)(F)F)cc1OCc1ccc(SC(F)(F)F)cc1 [A-0709]	≥ 90
Cc1cc(C)c([S+]([O-])CC(F)(F)F)cc1OCCc1ccc(C(F)(F)F)cc1 (stereo not shown) [A-0768]	≥ 90
Cc1cc(Cl)c(OCCc2ccc(C(F)(F)F)cc2)cc1[S+]([O-])CC(F)(F)F (stereo not shown) [A-0769]	≥ 90
[O-][S+](CC(F)(F)F)c1cc(OCCc2ccc(OC(F)F)cc2)c(F)cc1Cl (stereo not shown) [A-0773]	≥ 90
Cc1cc(F)c(OCCc2ccc(OC(F)F)cc2)cc1[S+]([O-])CC(F)(F)F (stereo not shown) [A-0774]	≥ 90
Cc1cc(C)c([S+]([O-])CC(F)(F)F)cc1OCCc1ccc(OC(F)F)cc1 (stereo not shown) [A-0775]	≥ 90
[O-][S+](CC(F)(F)F)c1cc(OCCc2ccc(OC(F)F)cc2)c(Cl)cc1Cl (stereo not shown) [A-0776]	≥ 90
[O-][S+](CC(F)(F)F)c1cc(OCCc2ccc(OC(F)(F)F)cc2)c(Cl)cc1Cl (stereo not shown) [A-0782]	≥ 90
Cc1cc(Cl)c(OCCc2ccc(OC(F)(F)F)cc2)cc1[S+]([O-])CC(F)(F)F (stereo not shown) [A-0784]	≥ 90
FC(F)(F)CSc1cc(OCCc2ccc(SC(F)(F)F)cc2)c(Cl)cc1Cl [A-0790]	≥ 90
[O-][S+](CC(F)(F)F)c1cc(OCCc2ccc(SC(F)(F)F)cc2)c(Cl)cc1Cl (stereo not shown) [A-0791]	≥ 90
Cc1cc(C)c([S+]([O-])CC(F)(F)F)cc1OCCc1ccc(SC(F)(F)F)cc1 (stereo not shown) [A-0792]	≥ 90
Cc1cc(Cl)c(OCCc2ccc(SC(F)(F)F)cc2)cc1[S+]([O-])CC(F)(F)F (stereo not shown) [A-0793]	≥ 90
Cc1cc(F)c(OCCc2ccc(OS(=O)(=O)C(F)(F)F)cc2)cc1[S+]([O-])CC(F)(F)F (stereo not shown) [A-0799]	≥ 90
O=S(=O)(Oc1ccc(CCOc2cc([S+]([O-])CC(F)(F)F)c(Cl)cc2F)cc1)C(F)(F)F (stereo not shown) [A-0800]	≥ 90
Cc1cc(F)c(OCCc2ccc(Cl)c(Cl)c2)cc1SCC(F)(F)F [A-0802]	≥ 90
Cc1cc(F)c(OCCc2ccc(F)c(F)c2F)cc1[S+]([O-])CC(F)(F)F (stereo not shown) [A-0805]	≥ 90
[O-][S+](CC(F)(F)F)c1cc(OCCc2ccc(F)c(F)c2F)c(F)cc1Cl (stereo not shown) [A-0806]	≥ 90

Compound	control value
Cc1cc(F)c(OCCc2cc(F)c(F)cc2F)cc1[S+]([O-])CC(F)(F)F (stereo not shown) [A-0807]	≥ 90
[O-][S+](CC(F)(F)F)c1cc(OCCc2cc(F)c(F)cc2F)c(F)cc1Cl (stereo not shown) [A-0808]	≥ 90
Cc1cc(F)c(OCCc2cc(F)c(F)c(F)c2)cc1[S+]([O-])CC(F)(F)F (stereo not shown) [A-0810]	≥ 90
Cc1cc(F)c(OCCc2ccc(F)c(C(F)(F)F)c2)cc1[S+]([O-])CC(F)(F)F (stereo not shown) [A-0814]	≥ 90
[O-][S+](CC(F)(F)F)c1cc(OCCc2ccc(F)c(C(F)(F)F)c2)c(F)cc1Cl (stereo not shown) [A-0816]	≥ 90
[O-][S+](CC(F)(F)F)c1cc(OCCc2ccc(C(F)(F)F)cc2F)c(F)cc1Cl (stereo not shown) [A-0817]	≥ 90
Cc1cc(Cl)c(OCCc2ccc(C(F)(F)F)cc2F)cc1[S+]([O-])CC(F)(F)F (stereo not shown) [A-0818]	≥ 90
Fc1cc(C(F)(F)F)ccc1CCOc1cc(SCC(F)(F)F)c(Cl)cc1Cl [A-0819]	≥ 90
[O-][S+](CC(F)(F)F)c1cc(OCCc2ccc(C(F)(F)F)cc2F)c(Cl)cc1Cl (stereo not shown) [A-0820]	≥ 90
Fc1cc(Cl)c(SCC(F)(F)F)cc1OCCc1ccc(OC(F)F)c(Cl)c1 [A-0826]	≥ 90
[O-][S+](CC(F)(F)F)c1cc(OCCc2ccc(OC(F)F)c(Cl)c2)c(F)cc1Cl (stereo not shown) [A-0827]	≥ 90
Cc1cc(F)c(OCCCc2cccc(C(F)(F)F)c2)cc1[S+]([O-])CC(F)(F)F (stereo not shown) [A-0845]	≥ 90
Cc1cc(F)c(OCCCc2cc(F)c(F)c(F)c2)cc1[S+]([O-])CC(F)(F)F (stereo not shown) [A-0856]	≥ 90
Cc1cc(F)c(OCCCCc2ccccc2)cc1SCC(F)(F)F [A-0860]	≥ 90
Cc1cc(F)c(OCCCCCc2ccccc2)cc1SCC(F)(F)F [A-0869]	≥ 90
Cc1cc(F)c(OCCCCCCc2ccccc2)cc1SCC(F)(F)F [A-0870]	≥ 90
Cc1cc(F)c(OCCCSc2ccc(F)cc2)cc1[S+]([O-])CC(F)(F)F (stereo not shown) [A-0878]	≥ 90
Cc1cc(F)c(OCCCSc2ccc(C(F)(F)F)cc2)cc1SCC(F)(F)F [A-0880]	≥ 90
Cc1cc(F)c(OCCCSc2ccc(C(F)(F)F)cc2)cc1[S+]([O-])CC(F)(F)F (stereo not shown) [A-0881]	≥ 90
